Source: article PMC2997060

T1: full length human Dsg3 tagged with the c-myc epitope (hDsg3.myc) (human) (UniProt P32926)
T1 sequence: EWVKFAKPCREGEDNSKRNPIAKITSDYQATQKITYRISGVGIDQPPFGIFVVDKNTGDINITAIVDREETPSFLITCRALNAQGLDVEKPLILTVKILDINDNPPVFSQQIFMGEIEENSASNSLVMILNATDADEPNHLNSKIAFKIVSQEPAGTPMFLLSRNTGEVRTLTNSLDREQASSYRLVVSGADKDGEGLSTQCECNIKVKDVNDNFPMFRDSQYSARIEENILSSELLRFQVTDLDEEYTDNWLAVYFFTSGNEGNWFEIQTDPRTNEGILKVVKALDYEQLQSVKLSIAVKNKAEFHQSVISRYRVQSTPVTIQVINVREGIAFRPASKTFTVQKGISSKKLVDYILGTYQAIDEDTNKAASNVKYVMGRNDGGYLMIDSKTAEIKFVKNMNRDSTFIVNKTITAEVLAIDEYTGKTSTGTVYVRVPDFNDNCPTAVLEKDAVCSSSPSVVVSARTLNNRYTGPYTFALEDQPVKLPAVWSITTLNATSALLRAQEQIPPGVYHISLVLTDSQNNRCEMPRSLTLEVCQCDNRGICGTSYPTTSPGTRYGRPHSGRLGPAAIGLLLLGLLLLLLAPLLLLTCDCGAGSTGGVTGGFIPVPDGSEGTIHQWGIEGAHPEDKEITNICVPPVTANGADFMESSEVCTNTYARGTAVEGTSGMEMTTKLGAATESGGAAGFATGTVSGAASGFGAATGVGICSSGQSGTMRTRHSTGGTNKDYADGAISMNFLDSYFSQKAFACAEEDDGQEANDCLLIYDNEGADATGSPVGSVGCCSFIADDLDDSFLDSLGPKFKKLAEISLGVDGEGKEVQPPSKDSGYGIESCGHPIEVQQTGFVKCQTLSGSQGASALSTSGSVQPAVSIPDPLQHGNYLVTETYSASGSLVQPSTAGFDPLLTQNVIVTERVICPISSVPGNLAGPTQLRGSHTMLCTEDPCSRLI

T2: endogenous Desmoglein 3 (Dsg3) (human (endogenous in A431 and HaCaT)) (UniProt P32926)
T2 sequence: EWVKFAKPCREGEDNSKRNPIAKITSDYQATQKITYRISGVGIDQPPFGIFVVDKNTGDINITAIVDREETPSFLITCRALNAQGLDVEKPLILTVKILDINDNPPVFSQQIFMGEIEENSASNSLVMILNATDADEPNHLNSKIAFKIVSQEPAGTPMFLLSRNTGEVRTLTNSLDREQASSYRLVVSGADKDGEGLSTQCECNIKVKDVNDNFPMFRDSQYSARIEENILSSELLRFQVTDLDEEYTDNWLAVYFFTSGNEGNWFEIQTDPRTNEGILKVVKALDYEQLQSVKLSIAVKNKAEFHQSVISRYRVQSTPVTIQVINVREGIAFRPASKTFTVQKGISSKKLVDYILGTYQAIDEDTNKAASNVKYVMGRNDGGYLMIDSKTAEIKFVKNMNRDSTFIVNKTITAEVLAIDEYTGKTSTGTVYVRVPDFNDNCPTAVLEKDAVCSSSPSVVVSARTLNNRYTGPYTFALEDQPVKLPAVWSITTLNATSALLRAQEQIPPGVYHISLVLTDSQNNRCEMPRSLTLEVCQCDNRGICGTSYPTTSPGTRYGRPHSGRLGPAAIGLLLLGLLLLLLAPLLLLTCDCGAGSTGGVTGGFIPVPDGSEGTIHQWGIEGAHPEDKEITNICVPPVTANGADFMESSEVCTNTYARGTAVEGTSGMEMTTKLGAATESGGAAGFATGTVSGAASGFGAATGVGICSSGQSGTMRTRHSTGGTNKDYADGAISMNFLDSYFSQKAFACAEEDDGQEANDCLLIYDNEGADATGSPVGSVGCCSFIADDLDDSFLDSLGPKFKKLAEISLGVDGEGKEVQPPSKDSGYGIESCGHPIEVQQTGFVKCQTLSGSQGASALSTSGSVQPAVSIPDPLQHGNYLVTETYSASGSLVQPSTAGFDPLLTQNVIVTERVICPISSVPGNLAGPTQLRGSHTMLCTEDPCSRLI


Assays:
[1] = biological target: T1, full length human Dsg3 tagged with the c-myc epitope (hDsg3.myc) (human); test: co-IP; RIPA lysates of A431 stable lines (empty vector control V and hDsg3.myc D3); antibodies (anti-myc, anti-Dsg3 5H10 or anti-E-cadherin HECD-1) coupled to Dynabeads, overnight at 4°C; Western blot
[2] = biological target: T2, endogenous Desmoglein 3 (Dsg3) (human (endogenous in A431 and HaCaT)); test: as above
[3] = biological target: E-cadherin (human (endogenous in A431 and HaCaT)); test: as above
[4] = biological target: E-cadherin (human (endogenous in A431 and HaCaT)); test: FRET or BRET; acceptor photobleaching FRET on immunostained HaCaT cells; E-cadherin labelled with HECD-1 and Alexa Fluor 488 Fab conjugate (donor), Dsg3 with rabbit anti-Dsg3 and Alexa Fluor 555 conjugate (acceptor); regions with FRET >5% counted positive
[5] = biological target: E-cadherin (human (endogenous in A431 and HaCaT)); test: co-IP; RIPA lysate of HaCaT cells (endogenous proteins); antibody coupled to Dynabeads, overnight at 4°C; Western blot

binding [1]	binding [2]	binding [3]	binding [4]	binding [5]	Molecule
binds	binds				E-cadherin (human (endogenous in A431 and HaCaT))
		binds			plakoglobin (Pg, also known as γ-catenin) (protein, UniProt P14923 1-745) MEVMNLMEQPIKVTEWQQTYTYDSGIHSGANTCVPSVSSKGIMEEDEACGRQYTLKKTTTYTQGVPPSQGDLEYQMSTTARAKRVREAMCPGVSGEDSSLLLATQVEGQATNLQRLAEPSQLLKSAIVHLINYQDDAELATRALPELTKLLNDEDPVVVTKAAMIVNQLSKKEASRRALMGSPQLVAAVVRTMQNTSDLDTARCTTSILHNLSHHREGLLAIFKSGGIPALVRMLSSPVESVLFYAITTLHNLLLYQEGAKMAVRLADGLQKMVPLLNKNNPKFLAITTDCLQLLAYGNQESKLIILANGGPQALVQIMRNYSYEKLLWTTSRVLKVLSVCPSNKPAIVEAGGMQALGKHLTSNSPRLVQNCLWTLRNLSDVATKQEGLESVLKILVNQLSVDDVNVLTCATGTLSNLTCNNSKNKTLVTQNSGVEALIHAILRAGDKDDITEPAVCALRHLTSRHPEAEMAQNSVRLNYGIPAIVKLLNQPNQWPLVKATIGLIRNLALCPANHAPLQEAAVIPRLVQLLVKAHQDAQRHVAAGTQQPYTDGVRMEEIVEGCTGALHILARDPMNRMEIFRLNTIPLFVQLLYSSVENIQRVAAGVLCELAQDKEAADAIDAEGASAPLMELLHSRNEGTATYAAAVLFRISEDKNPDYRKRVSVELTNSLFKHDPAAWEAAQSMIPINEPYGDDMDATYRPMYSSDVPLDPLEMHMDMDGDYPIDTYSDGLRPPYPTADHMLA
		binds			full length human Dsg3 tagged with the c-myc epitope (hDsg3.myc) (protein, UniProt P32926 50-999) EWVKFAKPCREGEDNSKRNPIAKITSDYQATQKITYRISGVGIDQPPFGIFVVDKNTGDINITAIVDREETPSFLITCRALNAQGLDVEKPLILTVKILDINDNPPVFSQQIFMGEIEENSASNSLVMILNATDADEPNHLNSKIAFKIVSQEPAGTPMFLLSRNTGEVRTLTNSLDREQASSYRLVVSGADKDGEGLSTQCECNIKVKDVNDNFPMFRDSQYSARIEENILSSELLRFQVTDLDEEYTDNWLAVYFFTSGNEGNWFEIQTDPRTNEGILKVVKALDYEQLQSVKLSIAVKNKAEFHQSVISRYRVQSTPVTIQVINVREGIAFRPASKTFTVQKGISSKKLVDYILGTYQAIDEDTNKAASNVKYVMGRNDGGYLMIDSKTAEIKFVKNMNRDSTFIVNKTITAEVLAIDEYTGKTSTGTVYVRVPDFNDNCPTAVLEKDAVCSSSPSVVVSARTLNNRYTGPYTFALEDQPVKLPAVWSITTLNATSALLRAQEQIPPGVYHISLVLTDSQNNRCEMPRSLTLEVCQCDNRGICGTSYPTTSPGTRYGRPHSGRLGPAAIGLLLLGLLLLLLAPLLLLTCDCGAGSTGGVTGGFIPVPDGSEGTIHQWGIEGAHPEDKEITNICVPPVTANGADFMESSEVCTNTYARGTAVEGTSGMEMTTKLGAATESGGAAGFATGTVSGAASGFGAATGVGICSSGQSGTMRTRHSTGGTNKDYADGAISMNFLDSYFSQKAFACAEEDDGQEANDCLLIYDNEGADATGSPVGSVGCCSFIADDLDDSFLDSLGPKFKKLAEISLGVDGEGKEVQPPSKDSGYGIESCGHPIEVQQTGFVKCQTLSGSQGASALSTSGSVQPAVSIPDPLQHGNYLVTETYSASGSLVQPSTAGFDPLLTQNVIVTERVICPISSVPGNLAGPTQLRGSHTMLCTEDPCSRLI
		binds	binds	binds	endogenous Desmoglein 3 (Dsg3) (protein, UniProt P32926 50-999) EWVKFAKPCREGEDNSKRNPIAKITSDYQATQKITYRISGVGIDQPPFGIFVVDKNTGDINITAIVDREETPSFLITCRALNAQGLDVEKPLILTVKILDINDNPPVFSQQIFMGEIEENSASNSLVMILNATDADEPNHLNSKIAFKIVSQEPAGTPMFLLSRNTGEVRTLTNSLDREQASSYRLVVSGADKDGEGLSTQCECNIKVKDVNDNFPMFRDSQYSARIEENILSSELLRFQVTDLDEEYTDNWLAVYFFTSGNEGNWFEIQTDPRTNEGILKVVKALDYEQLQSVKLSIAVKNKAEFHQSVISRYRVQSTPVTIQVINVREGIAFRPASKTFTVQKGISSKKLVDYILGTYQAIDEDTNKAASNVKYVMGRNDGGYLMIDSKTAEIKFVKNMNRDSTFIVNKTITAEVLAIDEYTGKTSTGTVYVRVPDFNDNCPTAVLEKDAVCSSSPSVVVSARTLNNRYTGPYTFALEDQPVKLPAVWSITTLNATSALLRAQEQIPPGVYHISLVLTDSQNNRCEMPRSLTLEVCQCDNRGICGTSYPTTSPGTRYGRPHSGRLGPAAIGLLLLGLLLLLLAPLLLLTCDCGAGSTGGVTGGFIPVPDGSEGTIHQWGIEGAHPEDKEITNICVPPVTANGADFMESSEVCTNTYARGTAVEGTSGMEMTTKLGAATESGGAAGFATGTVSGAASGFGAATGVGICSSGQSGTMRTRHSTGGTNKDYADGAISMNFLDSYFSQKAFACAEEDDGQEANDCLLIYDNEGADATGSPVGSVGCCSFIADDLDDSFLDSLGPKFKKLAEISLGVDGEGKEVQPPSKDSGYGIESCGHPIEVQQTGFVKCQTLSGSQGASALSTSGSVQPAVSIPDPLQHGNYLVTETYSASGSLVQPSTAGFDPLLTQNVIVTERVICPISSVPGNLAGPTQLRGSHTMLCTEDPCSRLI

Results are given in words; binding and its absence hold for the method and conditions named. Binding seen in cells or lysates may run through a third protein. A result given as binding can be weak or reduced; the word gives no strength. For some of these results: Sequences can lack the tags named with a protein.
